Measurements reported in PMC6581795, “Phosphorylation of FANCD2 Inhibits the FANCD2/FANCI Complex and Suppresses the Fanconi Anemia Pathway in the Absence of DNA Damage”.
These are yes or no findings as the source states them, for the method shown. Some results given as binding are weak or reduced against the parent protein; the word gives no strength. Where a sequence is shown, tags or fusion partners need not be part of it.

Protein sequences, listed by entry. Tags and fused reporters are not part of them. Lines headed by an entry give the natural chain unless they say otherwise; changes in a name come on top.
UniProt Q9BXW9: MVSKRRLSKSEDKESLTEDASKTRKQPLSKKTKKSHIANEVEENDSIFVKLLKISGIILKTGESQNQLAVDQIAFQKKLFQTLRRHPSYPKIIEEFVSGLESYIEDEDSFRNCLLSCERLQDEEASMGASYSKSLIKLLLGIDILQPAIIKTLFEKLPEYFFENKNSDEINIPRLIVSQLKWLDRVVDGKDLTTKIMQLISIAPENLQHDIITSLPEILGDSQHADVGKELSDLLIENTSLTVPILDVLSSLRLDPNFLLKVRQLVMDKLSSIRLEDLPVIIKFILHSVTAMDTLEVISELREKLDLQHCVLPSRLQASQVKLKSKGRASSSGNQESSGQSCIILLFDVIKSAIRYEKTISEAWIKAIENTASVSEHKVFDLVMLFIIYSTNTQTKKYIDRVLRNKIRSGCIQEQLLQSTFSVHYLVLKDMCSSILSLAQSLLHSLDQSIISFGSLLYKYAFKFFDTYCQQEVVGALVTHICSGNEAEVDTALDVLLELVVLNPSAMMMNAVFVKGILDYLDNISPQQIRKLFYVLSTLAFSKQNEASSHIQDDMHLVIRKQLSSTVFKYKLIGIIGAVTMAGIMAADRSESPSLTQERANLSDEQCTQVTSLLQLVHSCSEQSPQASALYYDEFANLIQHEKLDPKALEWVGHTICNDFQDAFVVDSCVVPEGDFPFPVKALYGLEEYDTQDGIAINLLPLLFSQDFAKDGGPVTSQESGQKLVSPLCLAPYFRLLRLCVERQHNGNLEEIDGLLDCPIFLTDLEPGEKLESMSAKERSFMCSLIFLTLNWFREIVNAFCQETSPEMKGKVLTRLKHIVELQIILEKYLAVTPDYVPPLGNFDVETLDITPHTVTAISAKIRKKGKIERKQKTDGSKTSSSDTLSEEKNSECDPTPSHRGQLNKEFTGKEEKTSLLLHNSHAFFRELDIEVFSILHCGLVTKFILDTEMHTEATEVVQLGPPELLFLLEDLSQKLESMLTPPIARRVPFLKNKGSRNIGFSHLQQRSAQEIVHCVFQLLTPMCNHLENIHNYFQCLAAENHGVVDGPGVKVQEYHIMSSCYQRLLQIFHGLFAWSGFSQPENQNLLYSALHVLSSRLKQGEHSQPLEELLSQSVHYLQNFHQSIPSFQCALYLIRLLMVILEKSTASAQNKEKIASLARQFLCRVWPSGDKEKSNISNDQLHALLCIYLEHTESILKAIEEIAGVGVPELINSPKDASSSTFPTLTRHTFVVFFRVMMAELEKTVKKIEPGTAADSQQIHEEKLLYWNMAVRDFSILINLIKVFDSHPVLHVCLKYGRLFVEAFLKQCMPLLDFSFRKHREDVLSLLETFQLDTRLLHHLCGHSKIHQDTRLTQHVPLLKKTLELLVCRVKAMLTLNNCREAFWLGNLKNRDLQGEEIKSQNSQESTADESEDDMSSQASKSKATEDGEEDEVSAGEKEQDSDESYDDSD
UniProt Q9NVI1: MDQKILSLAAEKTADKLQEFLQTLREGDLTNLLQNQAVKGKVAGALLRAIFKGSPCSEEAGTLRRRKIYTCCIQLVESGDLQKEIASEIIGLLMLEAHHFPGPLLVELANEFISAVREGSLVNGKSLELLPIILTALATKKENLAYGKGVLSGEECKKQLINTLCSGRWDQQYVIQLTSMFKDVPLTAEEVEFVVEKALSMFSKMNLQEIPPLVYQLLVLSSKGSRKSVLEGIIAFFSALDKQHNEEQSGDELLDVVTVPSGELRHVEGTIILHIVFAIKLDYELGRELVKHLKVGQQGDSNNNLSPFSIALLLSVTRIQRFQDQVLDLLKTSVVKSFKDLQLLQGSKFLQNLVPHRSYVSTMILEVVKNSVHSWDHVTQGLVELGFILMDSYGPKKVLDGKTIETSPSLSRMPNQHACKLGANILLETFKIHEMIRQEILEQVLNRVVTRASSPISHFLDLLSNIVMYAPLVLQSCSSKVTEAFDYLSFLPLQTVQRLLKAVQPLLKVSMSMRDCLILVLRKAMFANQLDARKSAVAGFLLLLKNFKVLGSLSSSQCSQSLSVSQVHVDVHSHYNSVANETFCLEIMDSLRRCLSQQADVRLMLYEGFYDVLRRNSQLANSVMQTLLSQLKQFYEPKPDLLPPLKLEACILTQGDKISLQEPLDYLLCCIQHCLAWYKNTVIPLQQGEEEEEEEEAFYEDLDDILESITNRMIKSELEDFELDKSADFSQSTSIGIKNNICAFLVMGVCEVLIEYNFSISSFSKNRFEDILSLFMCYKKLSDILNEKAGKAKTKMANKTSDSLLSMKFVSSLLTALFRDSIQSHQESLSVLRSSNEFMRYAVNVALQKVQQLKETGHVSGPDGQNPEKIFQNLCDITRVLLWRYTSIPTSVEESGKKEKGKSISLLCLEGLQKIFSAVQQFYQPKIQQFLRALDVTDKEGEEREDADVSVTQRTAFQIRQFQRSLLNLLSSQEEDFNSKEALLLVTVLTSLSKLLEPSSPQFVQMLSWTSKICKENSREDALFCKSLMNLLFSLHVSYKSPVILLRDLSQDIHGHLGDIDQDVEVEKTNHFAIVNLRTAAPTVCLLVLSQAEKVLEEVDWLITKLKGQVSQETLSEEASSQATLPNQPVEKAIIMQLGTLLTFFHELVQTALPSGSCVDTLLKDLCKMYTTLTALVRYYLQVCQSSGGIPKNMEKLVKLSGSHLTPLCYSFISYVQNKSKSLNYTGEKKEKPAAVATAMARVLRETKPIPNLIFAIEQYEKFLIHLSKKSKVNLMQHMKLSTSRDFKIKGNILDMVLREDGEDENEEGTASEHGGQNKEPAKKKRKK

How the values were obtained:
Assay in all cases: pull-down; 4 ug Flag-HA-FANCD2/His-FANCI and 1 ug Flag-HA-FANCL mixed in 100 ug/ml BSA, 20 mM Tris-HCl pH 7.5, 100 mM KCl, 5% glycerol, 2 mM beta-mercaptoethanol, 30 C 1 h; captured on Ni-NTA beads at 4 C, washed with 0.1% Tween-20; SDS-PAGE; both purified
[1] = target: Flag-HA-FANCD2-6A/His-FANCI complex (human) (UniProt Q9BXW9+Q9NVI1)
[2] = target: Flag-HA-FANCD2/His-FANCI complex (human) (UniProt Q9BXW9+Q9NVI1)
[3] = target: Flag-HA-FANCD2-6D/His-FANCI complex (human) (UniProt Q9BXW9+Q9NVI1)

Measured: binding

B1: Flag-HA-FANCL (enzyme, UniProt Q9NW38 1-375)
chain: MAVTEASLLRQCPLLLPQNRSKTVYEGFISAQGRDFHLRIVLPEDLQLKNARLLCSWQLRTILSGYHRIVQQRMQHSPDLMSFMMELKMLLEVALKNRQELYALPPPPQFYSSLIEEIGTLGWDKLVYADTCFSTIKLKAEDASGREHLITLKLKAKYPAESPDYFVDFPVPFCASWTPQSSLISIYSQFLAAIESLKAFWDVMDEIDEKTWVLEPEKPPRSATARRIALGNNVSINIEVDPRHPTMLPECFFLGADHVVKPLGIKLSRNIHLWDPENSVLQNLKDVLEIDFPARAILEKSDFTMDCGICYAYQLDGTIPDQVCDNSQCGQPFHQICLYEWLRGLLTSRQSFNIIFGECPYCSKPITLKMSGRKH
binds: all assays above
